Assay [1] has as its target T1, Jacob (endogenous, rat brain) (rat (endogenous in rat brain)) (UniProt Q9EPI6).
T1 sequence: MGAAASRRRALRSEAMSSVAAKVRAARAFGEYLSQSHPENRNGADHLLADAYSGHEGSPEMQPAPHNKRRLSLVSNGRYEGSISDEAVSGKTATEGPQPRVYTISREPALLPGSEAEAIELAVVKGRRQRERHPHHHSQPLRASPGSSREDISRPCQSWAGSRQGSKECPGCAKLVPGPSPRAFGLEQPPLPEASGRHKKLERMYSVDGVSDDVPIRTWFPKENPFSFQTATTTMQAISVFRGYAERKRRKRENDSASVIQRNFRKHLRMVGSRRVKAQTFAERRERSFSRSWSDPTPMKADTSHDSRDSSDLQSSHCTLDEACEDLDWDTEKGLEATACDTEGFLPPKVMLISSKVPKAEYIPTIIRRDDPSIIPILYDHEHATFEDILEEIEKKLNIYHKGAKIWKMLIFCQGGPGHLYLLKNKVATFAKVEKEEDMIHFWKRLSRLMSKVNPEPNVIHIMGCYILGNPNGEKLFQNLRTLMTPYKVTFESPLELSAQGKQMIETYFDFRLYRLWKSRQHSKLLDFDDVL
Nature of the assay: co-IP; rat brain extract, rabbit anti-Jacob on protein A sepharose, 5 mM EGTA in the precipitation buffer.

Amino acid sequences for entries named in this document (tags omitted). A change or cut given only in a name is not applied to a line headed by its entry. Residues count along the entry.
UniProt O88751: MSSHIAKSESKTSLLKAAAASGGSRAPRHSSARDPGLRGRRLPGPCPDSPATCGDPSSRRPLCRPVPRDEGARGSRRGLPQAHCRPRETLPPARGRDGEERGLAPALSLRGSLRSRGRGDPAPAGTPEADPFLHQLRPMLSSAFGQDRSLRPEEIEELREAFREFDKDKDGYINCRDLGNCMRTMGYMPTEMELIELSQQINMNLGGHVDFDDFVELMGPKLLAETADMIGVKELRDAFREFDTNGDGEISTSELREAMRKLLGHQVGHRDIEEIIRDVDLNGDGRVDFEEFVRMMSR
GST fusion protein containing the C-terminal half (aa 137-298) of Caldendrin: residues 137-298 of O88751

Assay [2] deals with T1, Jacob (endogenous, rat brain) (rat (endogenous in rat brain)). Description: co-IP; rat brain extract, rabbit anti-Jacob on protein A sepharose, 100 μM Ca2+ in the precipitation buffer.
Assay [3] has the same target. Description: co-IP; immunoaffinity columns: 15 mg protein of the 100,000 x g supernatant of a rat brain membrane extract loaded on an anti-Jacob or an anti-Caldendrin affinity column; eluates blotted.
The target of assay [4] is T2, myc/his-tagged WT Jacob (rat) (UniProt Q9EPI6).
T2 sequence: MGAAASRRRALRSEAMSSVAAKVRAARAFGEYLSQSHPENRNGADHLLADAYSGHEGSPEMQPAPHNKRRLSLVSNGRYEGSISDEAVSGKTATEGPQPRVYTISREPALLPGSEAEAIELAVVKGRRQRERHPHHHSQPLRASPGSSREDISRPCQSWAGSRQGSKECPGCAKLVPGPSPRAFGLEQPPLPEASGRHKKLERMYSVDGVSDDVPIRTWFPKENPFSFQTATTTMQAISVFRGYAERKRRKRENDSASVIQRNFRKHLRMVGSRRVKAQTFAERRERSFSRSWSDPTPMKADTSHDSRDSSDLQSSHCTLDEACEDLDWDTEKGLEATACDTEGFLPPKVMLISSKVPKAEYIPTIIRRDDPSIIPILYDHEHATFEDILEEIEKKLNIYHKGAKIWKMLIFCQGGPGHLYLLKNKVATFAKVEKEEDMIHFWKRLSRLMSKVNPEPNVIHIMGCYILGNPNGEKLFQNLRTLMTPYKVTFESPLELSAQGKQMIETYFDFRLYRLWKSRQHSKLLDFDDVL
Nature of the assay: pull-down; competition: equimolar recombinant Caldendrin added to the GST-Importin-α1 pull-down of myc/his-tagged WT Jacob, 2 mM Ca2+; only the binder purified.

Assay [5] addresses Caldendrin (entire open reading frame, yeast two-hybrid bait in pAS2-1) (UniProt O88751). Nature of the assay: two-hybrid; yeast; Caldendrin bait in pAS2-1, rat brain cDNA library in pACT2; deletion and point mutation constructs cotransformed; β-galactosidase colony lift assay scored by time to blue colonies (1 h, 3 h, 6 h).
Assay [6] has as its target GST fusion protein containing the C-terminal half (aa 137-298) of Caldendrin (UniProt O88751). Nature of the assay: pull-down; Triton X-100-extracted P2 fraction incubated with glutathione sepharose loaded with GST-Caldendrin (aa 137-298) at 100 μM Ca2+ in the presence or absence of 40 μg recombinant CaM; western blot with anti-JB150; only the target purified.
The target is the same in assay [7]. Nature of the assay: pull-down; Triton X-100-extracted P2 fraction of rat brain incubated with glutathione sepharose loaded with GST-Caldendrin (aa 137-298) at different Ca2+ concentrations; 1 μM free Ca2+ required; only the target purified.
Assay [8] has as its target Caldendrin (endogenous, rat brain) (rat (endogenous in rat brain)) (UniProt O88751). Nature of the assay: co-IP; immunoaffinity columns: 15 mg protein of the 100,000 x g supernatant of a rat brain membrane extract loaded on an anti-Jacob or an anti-Caldendrin affinity column; eluates blotted.

These are yes or no findings as the source states them, for the method shown. For some assays here: Binding seen in cells or lysates may run through a third protein. Some binding calls cover weakened binding; strength is not graded here. For some assays here: Tags and fused reporters may be left off the sequences shown.

Consider “Caldendrin (endogenous, rat brain) (from UniProt O88751 1-298)”, for which the results for the binding result in assay [1], in assay [2] and in assay [3] were “no binding (condition: with 5 mM EGTA)”, “binds” and “binds”, respectively.

Turning to “recombinant Caldendrin (competitor in the GST-Importin-α1 pull-down) (from UniProt O88751 1-298)”, the binding entry in assay [4] is recorded as “binds”.

B1: Jacob (full length, yeast two-hybrid) (protein, UniProt Q9EPI6 1-532)
chain: MGAAASRRRALRSEAMSSVAAKVRAARAFGEYLSQSHPENRNGADHLLADAYSGHEGSPEMQPAPHNKRRLSLVSNGRYEGSISDEAVSGKTATEGPQPRVYTISREPALLPGSEAEAIELAVVKGRRQRERHPHHHSQPLRASPGSSREDISRPCQSWAGSRQGSKECPGCAKLVPGPSPRAFGLEQPPLPEASGRHKKLERMYSVDGVSDDVPIRTWFPKENPFSFQTATTTMQAISVFRGYAERKRRKRENDSASVIQRNFRKHLRMVGSRRVKAQTFAERRERSFSRSWSDPTPMKADTSHDSRDSSDLQSSHCTLDEACEDLDWDTEKGLEATACDTEGFLPPKVMLISSKVPKAEYIPTIIRRDDPSIIPILYDHEHATFEDILEEIEKKLNIYHKGAKIWKMLIFCQGGPGHLYLLKNKVATFAKVEKEEDMIHFWKRLSRLMSKVNPEPNVIHIMGCYILGNPNGEKLFQNLRTLMTPYKVTFESPLELSAQGKQMIETYFDFRLYRLWKSRQHSKLLDFDDVL
Regarding B1, the binding entry in assay [5] is listed as “binds”.

B2: Jacob (endogenous, rat brain) (protein, UniProt Q9EPI6 1-532)
chain: MGAAASRRRALRSEAMSSVAAKVRAARAFGEYLSQSHPENRNGADHLLADAYSGHEGSPEMQPAPHNKRRLSLVSNGRYEGSISDEAVSGKTATEGPQPRVYTISREPALLPGSEAEAIELAVVKGRRQRERHPHHHSQPLRASPGSSREDISRPCQSWAGSRQGSKECPGCAKLVPGPSPRAFGLEQPPLPEASGRHKKLERMYSVDGVSDDVPIRTWFPKENPFSFQTATTTMQAISVFRGYAERKRRKRENDSASVIQRNFRKHLRMVGSRRVKAQTFAERRERSFSRSWSDPTPMKADTSHDSRDSSDLQSSHCTLDEACEDLDWDTEKGLEATACDTEGFLPPKVMLISSKVPKAEYIPTIIRRDDPSIIPILYDHEHATFEDILEEIEKKLNIYHKGAKIWKMLIFCQGGPGHLYLLKNKVATFAKVEKEEDMIHFWKRLSRLMSKVNPEPNVIHIMGCYILGNPNGEKLFQNLRTLMTPYKVTFESPLELSAQGKQMIETYFDFRLYRLWKSRQHSKLLDFDDVL
As to B2, the binding entry in assay [6], in assay [7] and in assay [8] was “binds” throughout.

For the origin of these results see paper PMC2253627.
